In US20160060326A1:
Changes are numbered by the printed parent chain. Results are given in words; binding and its absence hold for the method and conditions named. Some results given as binding are weak or reduced against the parent protein; the word gives no strength.

Chains of the proteins cited; added tags and fusions are not shown. Residues count along the entry.
UniProt P13794, residues 25-350: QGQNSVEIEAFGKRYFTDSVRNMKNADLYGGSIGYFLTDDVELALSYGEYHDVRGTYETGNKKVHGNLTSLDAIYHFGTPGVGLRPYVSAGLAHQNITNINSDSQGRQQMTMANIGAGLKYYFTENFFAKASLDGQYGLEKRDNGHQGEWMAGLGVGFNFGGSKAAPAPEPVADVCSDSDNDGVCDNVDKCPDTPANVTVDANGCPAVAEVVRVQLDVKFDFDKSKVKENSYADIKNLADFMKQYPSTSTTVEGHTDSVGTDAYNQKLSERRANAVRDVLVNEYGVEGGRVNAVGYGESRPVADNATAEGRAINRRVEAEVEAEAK

B1: OFC7 (antibody, V domains shown)
VH: QVQLVVSGDEVKKPGASVKVSCKASGYTFTSYDINWVRQAPGQGLEWLGWMSPNSGNTDYAEKFQGRVTMTRDTSITTAYMELSSLASEDTAVYYCARGVAAGLDYWGQGTLVTVSS
VL: LPVLTQSASVSGSPGQSITISCTGTSTDVDYSNYVSWYQHHPGKAPKLMIYDVSRRPSGVSNRFSGSKSGNTASLTISGLQAEDEADYYCSSYTSGTTLVFGGGTKVTVL
B2: OFA1 (antibody, V domains shown)
VH: EVQLVQSGAEMKKPGSSVKVSCKASGDTFSNYNFNWVRQAPGQGLEWMGGITPIFGAAQYAQKFQDRVTIIADESTSTAYMELRSLRSDDTAVYYCAGGWAGFCSSASCYRFDYWGQGTTVTVSS
VL: SYELTQPPSVSAAPGQKVTISCSGSSSNIGNYYVSWYQQLPGTAPKLLIYDNDKRPSGIPDRFSASKSGTSASLAITGLQAEDEADYYCQSYDRTLSGGILGTGTKLTVL
B3: OFG5 (antibody, V domains shown)
VH: QVQLVQSGAEVKKPGASVKVSCKASGYTFTGYYMHWVRQAPGQGLEWMGWINPNSGGTNYAQKFQGRVTITRDTSASTAYMELSSLRSEDTAVYYCATLGGAAAGLNTDYWGQGTLVTVSS
VL: SYELMQPASVSGSPGQSITISCTGTSSDVGGYNYVSWYQQHPGKAPKLMIYDVSNRPSGVSNRFSGSKSGNTASLTISGLQAEDEADYYCSSYTSSSTRVFGTGTKVTVL
B4: OFH10 (antibody, V domains shown)
VH: QVQLVESGGGLIQPGGSLRLSCAASGFTVSSNYMSWVRQAPGKGLEWVSVIYSGGTKYYADSVKGRFTISRDNSKNTLYLQMNSLRAEDTAVYFCARGDDAFDIWGQGTMVTVSS
VL: B3 VL with S1Q, Y2S, E3V, M5T, S97N, R99I, T103S
B5: OIH10 (antibody, V domains shown)
VH: EVQLVESGGGLVQPGGSLRLSCAASGFTGSNNYMSWVRQAPGKGLEWVSIIYSGGNAYYADSVKGRFTISRDNSKNILYFQMNSLRVEDTAVYYCAEGYGGVDYWGQGTLVTVSS
VL: QSVVTQPPSVSAAPGQKVTISCSGSSSNIGSNSVSWFQHLPGTAPKLLIYDNNQRPSNIPDRFSGSKSGASATLGITGLQTGDEADYYCGTWDHRLNTYVFGTGTKVTVL
B6: OIE12 (antibody, V domains shown)
VH: EVQLLESGGGLVQPGRSLRLSCTASGFTFGDYAMSWFRQAPGKGLEWVSVIYSGGSTYYADSVKGRFTISRHNSKNTLYLQMNSLRAEDTAVYYCARGYGIDYWGQGTLVTVSS
VL: QSVVTQPPSVSAAPGQRVTISCSGSSSNIENNYVSWYQQLPGTAPKLLIYDNNKRPSGIPDRFSGSKSGTSATLGITGLQTGDEADYYCGTWDSSLSTEVFGGGTKLTVL
B7: OIE9 (antibody, V domains shown)
VH: QVQLQQWGAGLLKPSETLSLTCAVYGGPFRSYYWSWIRQPPGKGLEWIGEINHSGSTNYNPSLKSRVTISVDRSKNQFSLKLTSVTAADTAVYYCAREGDHEAFDIWGQGTMVTVSS
VL: B6 VL with S2P, V4L, R17K, E30G, T98S, E99L
B8: OIF9 (antibody, V domains shown)
VH: QVQLVESGAEVKKPGASVKVSCKASGYTFTSYGISWVRQAPGQGLEWMGWISAYNGNTNYAQKLQGRVTMTTDTSTSTAYMELRSLRSDDTAVYYCARELGLDAFDIWGQGTMVTVSS
VL: B6 VL with R17K, E30G, T98A, E99V
B9: OIF6 (antibody, V domains shown)
VH: QVQLQQWGAGLLKPSETLSLTCAVYGGSFSGYYWSWIRQTPGKGLEWIGEINHSGSTNYNPSLKSRVTISADTSRNQFSLRLSSVTAADTAVYYCARGDSGFGVVSSYYFDQWGQGTLVTVSS
VL: SYELMQPPSESVAPGQTAKITCGGENIGSKSVHWYQQKSGQAPLLVVYDDRDRPSGIPERFFGSNSGDTASLTISGVEAGDEADYYCQVWDSRNDRVVFGGGTKLTVL
B10: OIA10 (antibody, V domains shown)
VH: QVQLVQSGAEVKKPGASVKVSCKASGYTFTSYYMHWVRQAPGQGLEWMGIINPSGGSTSYAQKFQGRVTMTRDTSTSTVYMELSSLRAEDMAVYYCAREGLPDAFDIWGQGTMVTVSS
VL: QAGLTQPASVSGSPGQSITLSCTGTSSDVGGYNYVTWFQQHPGKAPKLMIYDVSKRPSGASNRFSGSKSGNTASLTISGLQAEDEADYYCSSYTSSGTYVFGTGTKLTVL
B11: OIG1 (antibody, V domains shown)
VH: EVQLVESGAEVKKPGSSVKVSCKASGYTFTNYDINWVRQATGQGLEWMGWMNPNSGNTGYAQKFQGRVTMTRDTSISTAYMELSSLKSEDTAVYYCARDDYYDFDSWGQGTLVTVSS
VL: QSVVTQPPSVSAAPGQKVTISCSGSSSNIGKNYVSWYQHFPGTAPKLLIYDNDERPSGIPDRFSGSKSGTSATLGITGLQTGDEADYYCGAWDISLSAWVFGGGTKLTVL
B12: OIF10 (antibody, V domains shown)
VH: QVQLVQSGGGLVQPGGSLRLSCAASGFTVNSNHMSWVRQAPGKGLEWVSLIYNGDNTYYADSVKGRFTISRDNPKNTLYLQMNRLRDEDTAVYYCARDWGYNVGDWGQGTLVTVSS
VL: QSVLTQPASVSGSPGQSITISCTGTSSDVGGYNYVSWYQQHPGKAPKLMIYDVSNRPSGVSNRFSGSKSGNTASLTISGLQAEDEADYYCSSYAGSNNPYVFGTGTKVTVL
B13: OIG2 (antibody, V domains shown)
VH: B12 VH with L111M
VL: QSALTQPASVSGSPGQSITISCTGTSSDVGGYNYVSWYQQHPGKAPKLMIYDVSKRPSGVSNRFSGSKSGNTASLTISGLQAEDEADYYCSSYTSSSTPHYVFGTGTKVTVL
B14: OIG11 (antibody, V domains shown)
VH: QVQLVQSGGGLLQPGGSLRLSCAASGFTFSNYDMHWVRQPPGKGLEWVSSIDTAGDTYYEGSAKGRFTISRDNSANTLYLQMNSLTTEDTAVYYCAKDRIWFGDFDYWGQGTLVTVSS
VL: B12 VL with S2A, N55K, A94T, G95S, N97S, N98T, P99L, V108L
B15: OIH5 (antibody, V domains shown)
VH: B12 VH
VL: QSVLTQPPSASGTPGQRVTISCSGSNSNIGTNTVNWYQQVPGTAPKLLIHGNDQRPSGVPDRFSGSKSDTSASLAITGLQSDDDADYYCSAWDDSLNADVFGGGTKLTVL
B16: OIG12 (antibody, V domains shown)
VH: QVQLVQSGGGLVQPGGSLRLSCAASGFTFSSYEMNWVRQAPGKGLEWVSYISSSGSTIYYADSVKGRFTISRDNAKNSLYLQMNSLRAEDTAVYYCAREGQLLWAPFDYWGQGTLVTVSS
VL: QAVLTQPPSVSGAPGQRVTISCTGSNSNIGAGYDVHWYQQLPGTAPKLLIYGNTNRPSGVPDRFSGSKSGTSASLAITGLQAEDEADYYCQSYDSRLSAVFGGGTKVTVL
B17: OIH3 (antibody, V domains shown)
VH: QVQLVQSGGGLVQPGGSLRLSCAASGFTVSSNHMAWVRQAPGKGLEWVSLIYNGDSTYYPDSVKGRFTISRDNSKNALYLQMNSLRAEDTAVYYCARDWGYDTADWGQGTLVTVSS
VL: QPVLTQPASVSGSPGQSIAISCSGTSSDIGTYDSVSWYQQHPGKAPKVIIYEVDKRPSGVPDRFSGSKSGNTASLTVSGLQAEDEADYYCSSYAGSNNFVFGTGTKLTVL

molecular target: OprF (Pseudomonas aeruginosa) (UniProt P13794); test: ELISA, Example 1 (FIGS. 2 and 3)

binding | Binder
binds | B1
binds | B2
binds | B3
binds | B4

molecular target: OprI (Pseudomonas aeruginosa) (UniProt P11221); test: ELISA, Example 1 (FIG. 1)

binding | Binder
binds | B5
binds | B6
binds | B7
binds | B8
binds | B9
binds | B10
binds | B11
binds | B12
binds | B13
binds | B14
binds | B15
binds | B16
binds | B17
